Laboratory results taken from patent US20160081312A1, “MODEL OF ALZHEIMER'S DISEASE” (priority 2013, published 2016).
For at least one compound, name, drawing or mass did not settle the structure.

Tests used:
[1] = test system: APP; test: APP level in cultured rat neurons and astrocytes; format: cell-based, wistar rat; settings: memantine 5 μM, donepezil 10 μM, docosahexaenoic acid 10 μM, Vitamin E 10 μM
Protocol: (§1) The pregnant wistar rats were sacrificed by cervical dislocation and the embryos were removed on the 16th day of gestation. The embryonic brain tissues were mechanically dissociated into individual cells in dissection media containing Glucose (1M), sucrose (1 M), HEPES Buffer (1M) and Hank's salt (1×). The resulting cells were centrifuged (1,500 rpm, 5 min), resuspended in NEUROBASAL medium containing B-27 supplement (Invitrogen, Carlsbad, Calif.), L-glutamine (0.5 mM), penicillin (100 U/ml) and streptomycin (100 μg/ml) and plated into 60 mm dishes. The culture media was changed every 2 days.
(§2) The astrocytes from rat brain were isolated and cultured. Briefly, prefrontal cortices of 1-day-old wistar rats were dissected out and digested with trypsin for 10 min at 37° C. […]
(§3) The astrocytes and neurons were grown to 80% confluence, pre-incubated in reduced serum (0.5% fetal bovine serum [FBS]) medium for 2 h, and then treated with a mixture of As, Cd, and Pb (Group 1 and 2, Table 2 for neurons, and Table 3 for astrocytes) in the form of NaAsO2, CdCl2 and Pb(C2H3O2)2, respectively in Milli Q water for 16 h, and incubated in a humidified tissue culture incubator at 37° C. with 5% CO2-95% air. The NaAsO2, and CdCl2 readily dissolved in water, while Pb(C2H3O2)2 was dissolved by adding 0.043% acetic acid in water. […]

[2] = test system: Aβ; test: Aβ level in cultured rat neurons and astrocytes; format: cell-based, wistar rat; settings: memantine 5 μM, donepezil 10 μM, docosahexaenoic acid 10 μM, Vitamin E 10 μM
Protocol: as §1, §2, §3

CC/C=C\C/C=C\C/C=C\C/C=C\C/C=C\C/C=C\CCC(=O)O [Docosahexaenoic acid]
effect on levels of APP in the cellular model of AD [1]: suppressed
effect on levels of Aβ in the cellular model of AD [2]: suppressed
